# Some of the results follow. The calls rarely recur for the same compound in another form.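 Kinases, fused to nanoluciferase, were expressed in K562 cells; luminescence was measured every 4 h from 2 to 18 h as percent of control (DMSO = 100%, positive control = 0%). A time point is decreased if signal falls significantly (2 sigma). Hits were called by the authors by a rule that is not shown; the count of time points alone does not decide it.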
# Amino acid sequences for entries named in this document (tags omitted). A change or cut given only in a name is not applied to a line headed by its entry.
# UniProt P48729: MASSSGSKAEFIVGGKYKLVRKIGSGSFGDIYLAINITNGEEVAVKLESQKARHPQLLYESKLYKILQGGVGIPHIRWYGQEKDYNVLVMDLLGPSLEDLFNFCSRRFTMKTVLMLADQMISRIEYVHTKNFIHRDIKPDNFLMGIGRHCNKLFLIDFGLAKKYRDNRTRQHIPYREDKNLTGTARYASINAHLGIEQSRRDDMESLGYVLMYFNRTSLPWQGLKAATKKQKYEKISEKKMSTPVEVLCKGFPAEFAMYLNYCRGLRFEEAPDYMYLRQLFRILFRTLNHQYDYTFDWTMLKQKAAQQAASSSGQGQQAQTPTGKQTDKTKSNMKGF
# UniProt P48730: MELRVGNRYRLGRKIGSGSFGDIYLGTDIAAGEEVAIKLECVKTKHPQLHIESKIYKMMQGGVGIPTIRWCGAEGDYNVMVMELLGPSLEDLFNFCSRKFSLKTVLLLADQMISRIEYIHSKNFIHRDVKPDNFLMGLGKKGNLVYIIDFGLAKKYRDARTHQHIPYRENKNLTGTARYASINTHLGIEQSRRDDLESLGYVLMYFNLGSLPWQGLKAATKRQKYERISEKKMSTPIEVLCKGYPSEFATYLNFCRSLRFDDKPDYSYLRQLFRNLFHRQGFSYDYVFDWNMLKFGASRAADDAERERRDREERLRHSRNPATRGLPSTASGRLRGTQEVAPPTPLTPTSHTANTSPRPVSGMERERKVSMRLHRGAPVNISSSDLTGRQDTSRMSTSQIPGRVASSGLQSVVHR
# UniProt Q08345: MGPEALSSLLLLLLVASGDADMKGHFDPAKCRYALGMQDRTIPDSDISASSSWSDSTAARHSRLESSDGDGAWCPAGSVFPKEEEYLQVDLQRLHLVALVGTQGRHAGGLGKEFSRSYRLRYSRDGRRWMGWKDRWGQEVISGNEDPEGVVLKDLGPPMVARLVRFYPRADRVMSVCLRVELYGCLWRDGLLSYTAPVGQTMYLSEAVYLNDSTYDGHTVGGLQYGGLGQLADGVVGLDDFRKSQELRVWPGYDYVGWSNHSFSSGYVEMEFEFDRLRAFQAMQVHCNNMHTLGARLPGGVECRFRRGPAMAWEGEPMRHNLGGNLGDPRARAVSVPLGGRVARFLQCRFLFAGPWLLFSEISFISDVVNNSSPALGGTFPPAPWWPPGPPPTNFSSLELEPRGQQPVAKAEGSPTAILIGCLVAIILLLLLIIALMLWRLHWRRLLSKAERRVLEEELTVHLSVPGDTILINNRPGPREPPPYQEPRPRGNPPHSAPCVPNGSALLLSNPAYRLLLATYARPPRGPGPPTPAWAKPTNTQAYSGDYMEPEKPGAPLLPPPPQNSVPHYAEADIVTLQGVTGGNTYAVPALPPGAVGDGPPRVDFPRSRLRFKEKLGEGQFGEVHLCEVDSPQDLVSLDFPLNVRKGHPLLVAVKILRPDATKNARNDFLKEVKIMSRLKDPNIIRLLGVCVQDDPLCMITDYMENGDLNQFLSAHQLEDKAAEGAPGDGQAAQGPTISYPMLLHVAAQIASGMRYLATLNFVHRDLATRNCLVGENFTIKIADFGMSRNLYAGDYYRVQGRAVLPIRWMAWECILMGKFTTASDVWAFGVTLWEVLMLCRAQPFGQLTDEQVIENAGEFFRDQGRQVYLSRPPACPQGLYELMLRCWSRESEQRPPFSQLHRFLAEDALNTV
# UniProt Q9Y463, whole entry, looked up: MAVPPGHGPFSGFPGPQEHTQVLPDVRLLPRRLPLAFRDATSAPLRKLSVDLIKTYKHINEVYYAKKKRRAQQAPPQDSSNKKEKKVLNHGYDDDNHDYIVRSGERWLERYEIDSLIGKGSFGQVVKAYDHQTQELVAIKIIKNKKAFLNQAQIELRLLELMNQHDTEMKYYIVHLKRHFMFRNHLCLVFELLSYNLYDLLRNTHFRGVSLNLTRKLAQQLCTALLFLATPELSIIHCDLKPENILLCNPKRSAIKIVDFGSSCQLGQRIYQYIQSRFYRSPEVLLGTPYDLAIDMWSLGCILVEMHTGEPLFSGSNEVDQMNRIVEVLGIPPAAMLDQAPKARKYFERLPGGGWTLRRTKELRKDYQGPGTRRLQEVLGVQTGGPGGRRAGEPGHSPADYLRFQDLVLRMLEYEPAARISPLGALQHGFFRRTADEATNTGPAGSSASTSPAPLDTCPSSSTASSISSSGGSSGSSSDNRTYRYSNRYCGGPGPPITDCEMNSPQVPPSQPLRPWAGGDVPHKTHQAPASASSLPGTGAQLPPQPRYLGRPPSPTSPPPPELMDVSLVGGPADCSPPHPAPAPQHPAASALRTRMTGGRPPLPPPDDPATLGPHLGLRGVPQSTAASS
# UniProt Q92630: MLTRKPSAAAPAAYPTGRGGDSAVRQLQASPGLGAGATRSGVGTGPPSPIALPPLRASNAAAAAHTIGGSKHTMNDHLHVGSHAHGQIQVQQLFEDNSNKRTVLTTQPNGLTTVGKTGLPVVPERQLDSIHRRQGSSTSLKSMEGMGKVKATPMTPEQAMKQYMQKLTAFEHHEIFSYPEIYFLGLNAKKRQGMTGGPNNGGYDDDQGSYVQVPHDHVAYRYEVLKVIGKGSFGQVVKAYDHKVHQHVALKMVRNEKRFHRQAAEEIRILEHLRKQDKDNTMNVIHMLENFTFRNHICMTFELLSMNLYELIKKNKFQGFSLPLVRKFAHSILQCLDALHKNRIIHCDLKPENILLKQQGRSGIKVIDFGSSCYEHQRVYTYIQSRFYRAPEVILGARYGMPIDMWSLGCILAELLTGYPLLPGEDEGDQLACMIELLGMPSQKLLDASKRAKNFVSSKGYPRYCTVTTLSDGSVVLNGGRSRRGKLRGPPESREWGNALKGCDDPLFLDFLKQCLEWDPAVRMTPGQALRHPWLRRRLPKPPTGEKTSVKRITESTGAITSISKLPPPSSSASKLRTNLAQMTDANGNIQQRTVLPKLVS
# Key:
# Experiment in all cases: number of time points (of 5) at which kinase-Nluc abundance scored as decreased, DMSO-normalised (count); higher = more persistent destabilization
# Conditions in all cases: K562; 2-18 h
# CSNK1A1 = CSNK1A1 (UniProt P48729)
# CSNK1D = CSNK1D (UniProt P48730)
# DDR1 = DDR1 (UniProt Q08345)
# DYRK1B = DYRK1B (UniProt Q9Y463)
# DYRK2 = DYRK2 (UniProt Q92630)
# EGFR = EGFR (UniProt P00533)
# EGFR_G719S = EGFR_G719S (UniProt P00533)
# EGFR_G719S_T790M = EGFR_G719S_T790M (UniProt P00533)
# EGFR_L718V = EGFR_L718V (UniProt P00533)
# EGFR_L858R = EGFR_L858R (UniProt P00533)
Compound,number of time points (CSNK1A1),number of time points (CSNK1D),number of time points (DDR1),number of time points (DYRK1B),number of time points (DYRK2),number of time points (EGFR),number of time points (EGFR_G719S),number of time points (EGFR_G719S_T790M),number of time points (EGFR_L718V),number of time points (EGFR_L858R)
Cc1c(C)c(NCC(=O)N(C)C2CCN(Cc3ccc(C(N)=O)cc3)CC2)c(C)c(C)c1N (10 µM),0,0,0,0,0,0,0,0,0,0
C[C@H]1O[C@@H](O[C@H]2CC[C@@]3(C)[C@@H](CC[C@]4(C)[C@@H]3C=C[C@]35OC[C@@]6(CCC(C)(C)C[C@H]63)[C@H](O)C[C@]54C)[C@]2(C)CO)[C@H](O)[C@@H](O[C@@H]2O[C@H](CO)[C@@H](O)[C@H](O)[C@H]2O)[C@H]1O [Saikosaponin D] (2.5 µM),0,0,0,0,0,0,0,0,0,0
COCCOCCc1c(C)c2cc(OC)c(O)c(C=O)c2oc1=O (10 µM),0,0,0,0,0,0,0,0,0,0
COc1cc(F)ccc1-c1ncnc(Nc2cccc(C[S@](C)(=N)=O)c2)n1 [Atuveciclib] (2.5 µM),0,0,0,0,4,0,2,2,0,1
c1nn(C2CCOCC2)cc1Nc1ncc2nnn(-c3ccc4cn[nH]c4c3)c2n1 (10 µM),0,0,0,0,0,0,0,0,0,0
Cn1cc(-c2cc(Oc3cc(F)c(NC(=O)C4(C(=O)Nc5ccccc5)CC4)cc3F)ccn2)cn1 (2.5 µM),0,0,0,0,1,0,0,0,0,0
O=C(O)[C@H]1O[C@@H](Oc2cc3oc(-c4ccc(O)cc4)cc(=O)c3c(O)c2O)[C@H](O)[C@@H](O)[C@@H]1O [Scutellarin] (10 µM),0,0,0,0,0,0,0,0,0,0
C=CC(=O)N1CC[C@@H](Oc2nc(Nc3ccc(N4CCC(N5CCN(C)CC5)CC4)cc3)c(C(N)=O)nc2CC)C1 [Naquotinib (mesylate)] (2.5 µM),0,0,0,0,0,0,0,0,0,0
C=CC(=O)N1CCC[C@@H](n2nc(-c3ccc(Oc4ccccc4)cc3)c3c(N)n[nH]c(=O)c32)C1 [BTK inhibitor 17] (10 µM),0,0,0,0,2,0,0,0,0,0
CCC(=O)Nc1cccc(Oc2nc(Nc3ccc(N4CCN(C)CC4)cc3OC)ncc2Cl)c1 (10 µM),0,0,0,0,0,0,0,0,0,0
Fc1ccc2[nH]ccc2c1-c1nc(N2CCOCC2)c2sc(CN3CCN(CC4CC4)CC3)cc2n1 (10 µM),0,0,0,0,0,0,0,0,0,0
C=CC(=O)Nc1ccc(C(=O)Nc2[nH]nc3c2CN(C(=O)N[C@H](CN(C)C)c2ccccc2)C3(C)C)cc1 (10 µM),3,1,2,1,4,2,2,2,2,2
Cc1c(C(=O)Nc2ccc(Oc3ccnc4[nH]cc(-c5ccccc5)c34)c(F)c2)c(=O)n(-c2ccc(F)cc2)n1C (10 µM),0,0,0,0,3,0,0,0,0,0
C=CC(=O)Nc1cc(Nc2nccc(-c3cn(C)c4ccccc34)n2)c(OC)cc1OCCN(C)C [Rezivertinib] (2.5 µM),0,0,0,0,0,0,0,0,0,0
CCN1CCN(Cc2cnc(Nc3cc(-c4cc(F)c5nc(C)n(C(C)C)c5c4)c(F)cn3)nc2)CC1 (10 µM),0,0,0,0,0,0,3,0,0,0
CC(Sc1nc2c(cnn2-c2cccc(Cl)c2)c(=O)[nH]1)C(N)=O (stereo not given) (10 µM),0,0,0,0,0,0,0,0,0,0
C=C1C(=O)[C@@]23[C@H](O)C[C@@H]4C(C)(C)C(=O)CC[C@@]4(C)[C@@H]2CC[C@@H]1[C@H]3O [Glaucocalyxin A] (2.5 µM),0,0,0,0,0,0,0,0,0,0

Compound,number of time points (CSNK1A1),number of time points (CSNK1D),number of time points (DDR1),number of time points (DYRK1B),number of time points (DYRK2),number of time points (EGFR),number of time points (EGFR_G719S),number of time points (EGFR_G719S_T790M),number of time points (EGFR_L718V),number of time points (EGFR_L858R)
CC(Cc1ccc(O)c(O)c1)C(C)Cc1ccc(O)c(O)c1 (stereo not given) [Nordihydroguaiaretic acid] (2.5 µM),0,0,0,0,0,0,0,0,0,0
Nc1nc(NCCNc2ncc(-n3ccnc3)c(-c3ccc(Cl)cc3Cl)n2)ccc1[N+](=O)[O-] (2.5 µM),0,1,0,0,0,0,5,0,0,0
N#Cc1ccc(-c2cnc3[nH]cc(NC(=O)c4cccnc4)c3c2)cc1 (10 µM),0,0,0,0,0,0,0,0,0,0
CNC(=O)CNc1cnc2ccc(-c3ccc(OC)c(OC)c3)cc2n1 (10 µM),0,0,0,0,0,0,0,0,0,0
Oc1c(F)cc(-c2cnccc2-c2ccc(N3CCOCC3)cc2)cc1F (10 µM),0,0,0,0,0,0,0,0,0,0
Cc1ccc(C(=O)NC2CC2)cc1-n1ncc(C(=O)c2cccc(C#N)c2)c1N [Acumapimod] (10 µM),0,0,0,0,2,0,0,0,0,0
CN1CCN(c2ccc(Nc3ncc4cc(C#N)c(=O)n(C5CCCC5)c4n3)cc2)CC1 (10 µM),0,0,0,0,0,0,0,0,0,0
CN(C)c1ccc(-c2nc3ncc(Cl)c(N4CCN(CC(=O)Nc5nccs5)CC4)c3[nH]2)cc1 (2 µM),0,0,0,0,0,0,0,0,0,0
CCN(CC)CCOc1ccc(Nc2nc(-c3ccccc3NC(=O)CCN3CCN(C)CC3)nc3ccccc23)cc1 (2.5 µM),0,0,0,0,0,0,0,0,0,0
O=C(ON=C1c2ccccc2-c2nc3ccccc3nc21)c1ccco1 (2.5 µM),0,0,0,0,0,0,0,0,0,0
CCCCCC(=O)N[C@@H](Cc1ccc(O)cc1)C(=O)OC (10 µM),0,0,0,0,0,0,0,0,0,0
O=C1OC(/C=C/c2ccccc2)=NC/1=C\c1cccnc1 (10 µM),0,0,0,0,0,0,0,0,0,0
N#C/C(=C\c1ccc(O)c(O)c1)C(=O)O [Tyrphostin AG30] (10 µM),0,0,0,0,0,0,0,0,0,0
CCNC(=O)C#Cc1ccc2c(C(=Nc3ccc(CN(C)C)cc3)c3ccccc3)c(O)[nH]c2c1 (2.5 µM),0,0,0,0,0,0,0,0,0,0
COc1cc2ncnc(Nc3cccc(I)c3)c2cc1OC (2.5 µM),0,0,0,0,0,0,0,0,0,0
O=c1[nH]ccc2nc(-c3ccc(CN4CCC(c5nc(-c6ccccn6)n[nH]5)CC4)cc3)c(-c3ccccc3)cc12 (10 µM),0,0,0,0,0,0,0,0,0,0

# 7 consecutive compounds out of the list so far, quoted:
Compound,number of time points (CSNK1A1),number of time points (CSNK1D),number of time points (DDR1),number of time points (DYRK1B),number of time points (DYRK2),number of time points (EGFR),number of time points (EGFR_G719S),number of time points (EGFR_G719S_T790M),number of time points (EGFR_L718V),number of time points (EGFR_L858R)
CCC(=O)Nc1cccc(Oc2nc(Nc3ccc(N4CCN(C)CC4)cc3OC)ncc2Cl)c1 (10 µM),0,0,0,0,0,0,0,0,0,0
Fc1ccc2[nH]ccc2c1-c1nc(N2CCOCC2)c2sc(CN3CCN(CC4CC4)CC3)cc2n1 (10 µM),0,0,0,0,0,0,0,0,0,0
C=CC(=O)Nc1ccc(C(=O)Nc2[nH]nc3c2CN(C(=O)N[C@H](CN(C)C)c2ccccc2)C3(C)C)cc1 (10 µM),3,1,2,1,4,2,2,2,2,2
Cc1c(C(=O)Nc2ccc(Oc3ccnc4[nH]cc(-c5ccccc5)c34)c(F)c2)c(=O)n(-c2ccc(F)cc2)n1C (10 µM),0,0,0,0,3,0,0,0,0,0
C=CC(=O)Nc1cc(Nc2nccc(-c3cn(C)c4ccccc34)n2)c(OC)cc1OCCN(C)C [Rezivertinib] (2.5 µM),0,0,0,0,0,0,0,0,0,0
CCN1CCN(Cc2cnc(Nc3cc(-c4cc(F)c5nc(C)n(C(C)C)c5c4)c(F)cn3)nc2)CC1 (10 µM),0,0,0,0,0,0,3,0,0,0
CC(Sc1nc2c(cnn2-c2cccc(Cl)c2)c(=O)[nH]1)C(N)=O (stereo not given) (10 µM),0,0,0,0,0,0,0,0,0,0
